PubChem BioAssay AID504793 – Drosophila RNAi Screening Center, 2011
The deposit covers about 23,000 reagents; this is a random part of those that have a named target and a result. Over the whole deposit, 62 (0.27%) were called active. 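Calls come from follow-up tests whose scores are not deposited, so confirmed genes may have low counts here; counts are not normalised per plate.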 Raw values vary from plate to plate and are shown uncorrected.

Screen: 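Genes required for cells to halt at G2/M after double-strand DNA breaks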 (primary screen)
Cells: Drosophila S2R+ cells
Reagents: long dsRNA against Drosophila genes, about 0.25 µg dsRNA per well
Time to read-out: 4 days of dsRNA, then 4 hours of drug before read-out
Treatment: doxorubicin 0.5 µM for 4 hours to cause double-strand breaks, in cells also given a low, harmless dose of dsRNA against nbs to sensitise the assay
Measured: 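Per-well count of mitotic cells stained for phospho-histone H3 after doxorubicin exposure, used as mitotic index; counts are raw and not normalised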
Scale: mitotic cells: higher = more cells in mitosis, weaker G2 arrest
Call rule: 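Genes are called active only when high mitotic counts were reproduced with independent dsRNAs and mitosis was checked for delay without damage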
Calls: active = confirmed in follow-up tests; inactive = not confirmed

| gene knocked down | dsRNA | mitotic cells, replicate 1 | activity call |
| --- | --- | --- | --- |
| dati (datilografo) | DRSC17128 | 12 | inactive |
| dati (datilografo) | DRSC17153 | 14 | inactive |
| dati (datilografo) | DRSC25407 | 2 | inactive |
| Syt1 (Synaptotagmin 1) | DRSC00156 | 36 | inactive |
| Syt1 (Synaptotagmin 1) | DRSC00157 | 7 | inactive |
| Syt1 (Synaptotagmin 1) | DRSC00158 | 35 | inactive |
| Syt1 (Synaptotagmin 1) | DRSC00840 | 5 | inactive |
| Syt1 (Synaptotagmin 1) | DRSC22077 | 9 | inactive |
| Syt1 (Synaptotagmin 1) | DRSC27456 | 3 | inactive |
| pxb | DRSC13110 | 8 | inactive |
| pxb | DRSC14996 | 13 | inactive |
| pxb | DRSC14997 | 10 | inactive |
| pxb | DRSC22225 | 4 | inactive |
| pxb | DRSC25214 | 9 | inactive |
| COX7C (Cytochrome c oxidase subunit 7C) | DRSC06831 | 15 | inactive |
| CG34046 (retired record) | DRSC14075 | 3 | inactive |
| CG34046 (retired record) | DRSC30016 | 4 | inactive |
| mRpL9 (mitochondrial ribosomal protein L9) | DRSC15678 | 8 | inactive |
| mRpL9 (mitochondrial ribosomal protein L9) | DRSC27528 | 6 | inactive |
| CG3795 | DRSC18593 | 3 | inactive |
| CG3795 | DRSC25687 | 8 | inactive |
| Ser8 | DRSC06891 | 8 | inactive |
| Ser8 | DRSC25468 | 5 | inactive |
| CG9008 | DRSC01889 | 7 | inactive |
| CG9008 | DRSC26675 | 3 | inactive |
| CG8172 | DRSC07089 | 14 | inactive |
| CG8172 | DRSC22113 | 5 | inactive |
| CG8172 | DRSC25604 | 7 | inactive |
| CG12003 | DRSC08214 | 9 | inactive |
| mei-P26 (meiotic P26) | DRSC23049 | 6 | inactive |
| CG10147 | DRSC09706 | 3 | inactive |
| CG10147 | DRSC29564 | 8 | inactive |
| Rab30 | DRSC03137 | 7 | inactive |
| Rab30 | DRSC23953 | 9 | inactive |
| CG43394 | DRSC01013 | 6 | inactive |
| CG43394 | DRSC28255 | 1 | inactive |
| eIF3a (eukaryotic translation initiation factor 3 subunit a) | DRSC12339 | 7 | inactive |
| eIF3a (eukaryotic translation initiation factor 3 subunit a) | DRSC28481 | 2 | inactive |
| Der-1 (Derlin-1) | DRSC00301 | 8 | inactive |
| CG13168 | DRSC06295 | 7 | inactive |
| glob2 (globin 2) | DRSC12560 | 2 | inactive |
| CG2269 | DRSC06833 | 7 | inactive |
| shakB (shaking B) | DRSC20585 | 7 | inactive |
| shakB (shaking B) | DRSC22817 | 13 | inactive |
| shakB (shaking B) | DRSC26262 | 6 | inactive |
| arx (asterix) | DRSC10386 | 3 | inactive |
| srl (spargel) | DRSC12340 | 2 | inactive |
| srl (spargel) | DRSC29561 | 3 | inactive |
| RpS13 (Ribosomal protein S13) | DRSC03419 | – | inactive |
| RpS13 (Ribosomal protein S13) | DRSC28558 | 1 | inactive |
| Mt2 (Methyltransferase 2) | DRSC03374 | 6 | inactive |
| Ccp84Ae | DRSC12590 | 6 | inactive |
| Ccp84Ae | DRSC26385 | 3 | inactive |
| ver (verrocchio) | DRSC10125 | 4 | inactive |
| ver (verrocchio) | DRSC28113 | 7 | inactive |
| CG3104 | DRSC25569 | 14 | inactive |
| Mi-2 | DRSC11222 | 10 | inactive |
| Mi-2 | DRSC25055 | 8 | inactive |
| SdhCL (Succinate dehydrogenase, subunit C-like) | DRSC16078 | 2 | inactive |
| Gprk1 (G protein-coupled receptor kinase 1) | DRSC20732 | 13 | inactive |
| Gprk1 (G protein-coupled receptor kinase 1) | DRSC20916 | 9 | inactive |
| CG14260 | DRSC14755 | 4 | inactive |
| cyr (cypher) | DRSC18017 | 15 | inactive |
| cyr (cypher) | DRSC18018 | 4 | inactive |
| CG13160 | DRSC06284 | 8 | inactive |
| ND-51L2 (NADH dehydrogenase (ubiquinone) 51 kDa subunit-like 2) | DRSC07080 | 14 | inactive |
| CG17826 | DRSC10289 | 4 | inactive |
| CG17826 | DRSC28654 | 3 | inactive |
| CG7379 | DRSC16237 | 10 | inactive |
| CG7379 | DRSC24324 | 15 | inactive |
| CG13228 | DRSC06348 | 8 | inactive |
| CG13228 | DRSC27946 | 6 | inactive |
| serp (serpentine) | DRSC11035 | 8 | inactive |
| serp (serpentine) | DRSC11036 | 5 | inactive |
| Dsp1 (Dorsal switch protein 1) | DRSC23078 | 8 | inactive |
| Dsp1 (Dorsal switch protein 1) | DRSC28760 | 9 | inactive |
